Taken from: PubChem BioAssay AID652243 (Drosophila RNAi Screening Center, 2013)
Screen: 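Knock-downs that decrease or increase androgen receptor reporter signal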 (primary screen). Cells: Drosophila S2R+ cells. Reagent: long dsRNA against Drosophila genes. Time to read-out: 72 h (48 h, then 24 h hormone). Treatment: synthetic androgen R1881 at 10 nM for 24 h. Measurement: 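Per-well raw luminescence of the androgen-driven firefly reporter and of the Renilla control, two replicates each, without normalisation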. Reading the numbers: firefly reporter light: higher = more light from androgen-responsive reporter; Renilla control light: higher = more constitutive control signal (cell number, transfection). Hit rule: 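Hit when the log firefly-to-Renilla ratio dropped or increased by a fixed fold versus the mean of GFP or LacZ controls across duplicate plates; lowering cut given as 1.5 and as 3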. Meaning of the calls: active = hit: reporter lowered or raised; inactive = no hit.
In all, the deposit lists about 24,000 reagents; below is an unselected part of those that have a named target and a result. In the full data, 246 (1%) are marked active. 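Plates not normalised; calls are printed but the firefly/Renilla ratio behind them is not deposited; fold cut for lowering reported inconsistently.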 Raw values are not corrected between plates. Reagent sequences are not shown. Not stated in the record: the amount of reagent.

| gene | amplicon | firefly reporter light, replicate 1 | firefly reporter light, replicate 2 | Renilla control light, replicate 1 | Renilla control light, replicate 2 | outcome |
| --- | --- | --- | --- | --- | --- | --- |
| SPoCk (GeneID 40495) | DRSC11675 | 1.87e5 | 1.72e5 | 1.78e6 | 1.52e6 | inactive |
| SPoCk (GeneID 40495) | DRSC11706 | 1.74e5 | 1.27e5 | 1.92e6 | 2.07e6 | inactive |
| SPoCk (GeneID 40495) | DRSC11844 | 2.43e5 | 1.95e5 | 1.75e6 | 2.00e6 | inactive |
| SPoCk (GeneID 40495) | DRSC11845 | 2.55e5 | 1.88e5 | 1.78e6 | 2.35e6 | inactive |
| SPoCk (GeneID 40495) | DRSC24007 | 7.64e5 | 6.49e5 | 5.30e5 | 5.03e5 | inactive |
| Ac13E (GeneID 32485) | DRSC19325 | 2.64e5 | 3.77e5 | 2.87e6 | 3.35e6 | inactive |
| Ac13E (GeneID 32485) | DRSC27333 | 2.46e5 | 3.22e5 | 5.17e5 | 5.58e5 | inactive |
| sna (GeneID 34908) | DRSC03613 | 1.65e5 | 1.93e5 | 1.74e6 | 1.90e6 | inactive |
| CG14089 (GeneID 40101) | DRSC10093 | 2.28e5 | 2.08e5 | 2.71e6 | 2.04e6 | inactive |
| CG14089 (GeneID 40101) | DRSC24848 | 7.64e5 | 9.56e5 | 9.97e5 | 8.24e5 | inactive |
| CG33096 (GeneID 326251) | DRSC14440 | 52343 | 61338 | 4.68e5 | 4.72e5 | inactive |
| CG33096 (GeneID 326251) | DRSC25968 | 2.88e5 | 4.79e5 | 8.00e5 | 7.96e5 | inactive |
| CG42671 (GeneID 39268) | DRSC09093 | 77110 | 26082 | 7.27e5 | 8.12e5 | inactive |
| CG42671 (GeneID 39268) | DRSC10321 | 2.96e5 | 3.04e5 | 2.71e6 | 2.18e6 | inactive |
| CG42671 (GeneID 39268) | DRSC29747 | 3.82e5 | 4.54e5 | 1.93e6 | 1.92e6 | inactive |
| CG42671 (GeneID 39268) | DRSC38615 | 7.61e5 | 7.88e5 | 1.66e6 | 2.12e6 | inactive |
| BG642163 (GeneID 4379888) | DRSC00342 | 1.88e5 | 1.37e5 | 8.74e5 | 1.14e6 | inactive |
| BG642163 (GeneID 4379888) | DRSC00343 | 1.35e5 | 1.23e5 | 1.23e6 | 9.32e5 | inactive |
| HDAC4 (GeneID 32278) | DRSC19780 | 3.69e5 | 3.52e5 | 3.60e6 | 3.83e6 | inactive |
| HDAC4 (GeneID 32278) | DRSC25237 | 87642 | 27316 | 4.15e5 | 4.87e5 | active |
| LManVI (GeneID 34206) | DRSC03224 | 2.24e5 | 1.39e5 | 1.21e6 | 1.06e6 | inactive |
| LManVI (GeneID 34206) | DRSC27521 | 2.56e5 | 2.22e5 | 5.47e5 | 7.88e5 | inactive |
| Peritrophin-15b (GeneID 50432) | DRSC02266 | 2.53e5 | 1.88e5 | 2.19e6 | 1.79e6 | inactive |
| CG30355 (GeneID 246561) | DRSC21958 | 6.96e5 | 5.94e5 | 8.98e5 | 7.32e5 | inactive |
| ldbr (GeneID 38900) | DRSC10933 | 4.97e5 | 5.61e5 | 5.12e5 | 8.96e5 | inactive |
| CG30187 (GeneID 246509) | DRSC22461 | 3.78e5 | 6.87e5 | 4.74e5 | 7.61e5 | inactive |
| eIF2beta (GeneID 39433) | DRSC11341 | 2.60e5 | 2.04e5 | 2.64e6 | 1.24e6 | inactive |
| eIF2beta (GeneID 39433) | DRSC28025 | 6.70e5 | 5.61e5 | 1.84e6 | 1.38e6 | inactive |
| cpa (GeneID 37387) | DRSC04080 | 9.76e5 | 7.31e5 | 1.68e6 | 1.99e6 | inactive |
| CG13197 (GeneID 36253) | DRSC06322 | 4.15e5 | 3.75e5 | 1.66e6 | 2.39e6 | inactive |
| CG13197 (GeneID 36253) | DRSC39308 | – | – | – | – | inactive |
| CG5550 (GeneID 36883) | DRSC06943 | 56813 | 65370 | 7.66e5 | 7.66e5 | inactive |
| CG5550 (GeneID 36883) | DRSC29735 | 6.03e5 | 5.15e5 | 1.57e6 | 1.37e6 | inactive |
| Polr3A (GeneID 32524) | DRSC19766 | 5.24e5 | 5.34e5 | 4.33e6 | 3.78e6 | inactive |

Part of the list above, reformatted.
gene,amplicon,"firefly reporter light, replicate 1","firefly reporter light, replicate 2","Renilla control light, replicate 1","Renilla control light, replicate 2",outcome
CG42671 (GeneID 39268),DRSC09093,77110,26082,7.27e5,8.12e5,inactive
CG42671 (GeneID 39268),DRSC10321,2.96e5,3.04e5,2.71e6,2.18e6,inactive
CG42671 (GeneID 39268),DRSC29747,3.82e5,4.54e5,1.93e6,1.92e6,inactive
CG42671 (GeneID 39268),DRSC38615,7.61e5,7.88e5,1.66e6,2.12e6,inactive
BG642163 (GeneID 4379888),DRSC00342,1.88e5,1.37e5,8.74e5,1.14e6,inactive
BG642163 (GeneID 4379888),DRSC00343,1.35e5,1.23e5,1.23e6,9.32e5,inactive
HDAC4 (GeneID 32278),DRSC19780,3.69e5,3.52e5,3.60e6,3.83e6,inactive

The list goes on:
| gene | amplicon | firefly reporter light, replicate 1 | firefly reporter light, replicate 2 | Renilla control light, replicate 1 | Renilla control light, replicate 2 | outcome |
| --- | --- | --- | --- | --- | --- | --- |
| Ir60a (GeneID 37881) | DRSC04212 | 3.34e5 | 2.29e5 | 2.02e6 | 1.63e6 | inactive |
| S-Lap2 (GeneID 326209) | DRSC10628 | 3.15e5 | 2.43e5 | 3.09e6 | 2.87e6 | inactive |
| CG34299 (GeneID 5740430) | DRSC38808 | 7.59e5 | 6.15e5 | 2.03e6 | 1.51e6 | inactive |
| CG31516 (GeneID 318776) | DRSC11994 | 2.50e5 | 1.51e5 | 6.73e5 | 6.15e5 | inactive |
| PIG-F (GeneID 40139) | DRSC11069 | 2.62e5 | 1.99e5 | 2.65e6 | 2.28e6 | inactive |
| PIG-F (GeneID 40139) | DRSC27027 | 3.96e5 | 2.69e5 | 6.78e5 | 3.91e5 | inactive |
| CG33225 (GeneID 2768860) | DRSC03881 | 1.91e5 | 2.10e5 | 2.25e5 | 2.74e5 | inactive |
| ex (GeneID 33218) | DRSC00817 | 7.37e5 | 6.51e5 | 1.84e6 | 1.28e6 | inactive |
| ex (GeneID 33218) | DRSC23963 | 5.47e5 | 4.20e5 | 6.34e5 | 5.47e5 | inactive |
| CG4080 (GeneID 39079) | DRSC10398 | 1.09e6 | 4.79e5 | 1.36e6 | 6.62e5 | inactive |
| vimar (GeneID 35609) | DRSC05026 | 9.12e5 | 6.07e5 | 1.65e6 | 1.78e6 | inactive |
| Gfat2 (GeneID 43373) | DRSC14598 | 56126 | 60058 | 6.12e5 | 5.32e5 | inactive |
| Gfat2 (GeneID 43373) | DRSC26948 | 4.55e5 | 2.78e5 | 9.00e5 | 5.95e5 | inactive |
| Dnai2 (GeneID 39318) | DRSC10575 | 2.94e5 | 1.92e5 | 2.71e6 | 1.76e6 | inactive |
| Art3 (GeneID 41837) | DRSC16065 | 1.03e5 | 1.18e5 | 8.65e5 | 9.10e5 | inactive |
| CG34033 (GeneID 3885602) | DRSC38882 | 1.34e6 | 1.10e6 | 2.05e6 | 1.50e6 | inactive |
| CG14424 (GeneID 31279) | DRSC18472 | 1.93e5 | 1.56e5 | 2.36e6 | 1.82e6 | inactive |
| CG14424 (GeneID 31279) | DRSC29124 | 9.75e5 | 1.01e6 | 1.38e6 | 1.33e6 | inactive |
| NPFR (GeneID 40754) | DRSC12173 | 1.29e5 | 1.46e5 | 3.12e6 | 2.72e6 | inactive |
| CG12158 (GeneID 2768730) | DRSC22933 | 4.04e5 | 7.35e5 | 8.60e5 | 1.60e6 | inactive |
| Panx (GeneID 37434) | DRSC04563 | 2.19e5 | 2.22e5 | 1.72e6 | 1.43e6 | inactive |
| nudC (GeneID 39879) | DRSC11096 | 2.97e5 | 1.70e5 | 2.11e6 | 2.02e6 | inactive |
| nudC (GeneID 39879) | DRSC11097 | 2.60e5 | 2.74e5 | 2.56e6 | 2.48e6 | inactive |
| Sras (GeneID 44002) | DRSC11287 | 2.08e5 | 1.82e5 | 2.62e6 | 1.64e6 | inactive |
